Test results as given in patent publication US20060258726A1, “1,5-Disubstituted imidazolidin-2-one derivatives for use as ep4 receptor agonists in the treatment of eye and bone diseases” (priority 2002, published 2006).
For at least one compound, name, drawing or mass did not settle the structure.

Test system: EP4 mRNA
Assay: EP4 mRNA levels in bone-derived cell lines (Northern blot)
Format: cell-based, rat
Conditions: RCT-1 cells
Experimental: RP-1 periosteal cells are spontaneously immortalized from primary cultures of periosteal cells from tibae of 4-week old Sprague-Dawley rats and are cultured in DMEM (BRL, Gaithersburg, Md.) with 10% fetal bovine serum (JRH Biosciences, Lenexa, Kans.).
RCT-1 and RCT-3 are clonal cell lines immortalized by SV-40 large T antigen from cells released from fetal rat calvair by a cmbination collagenase/hyaluronidase digestion. RCT-1 cells, derived from cells released during the first 10 minutes of digestion (fraction I), are cultured in RPMI 1640 medium (BRL) with 10% fetal bovine serum and 0.4 mg/ml G418 (BRL). These cells differentiate and express osteoblastic features upon retinoic acid treatment. RCT-3 cells, immortalized from osteoblast-enriched fraction III cells, are cultured in F-12 medium (BRL) with 5% Fetal bovine serum and 0.4 mg/ml G418. TRAB-11 cells are also immortalized by SV40 large T antigen from adult rat tibia and are cultured in RPML 1640 medium with 10% FBS and 0.4 mg/ml G418. ROS 17/2.8 rat osteosarcoma cells are cultured in F-12 containing 5% FBS. Osteoblast-enriched (fraction E) primary fetal rat calvaria cells are obtained by collagenase/hyaluronidase digestion of calvariae of 19 day-old rat fetuses. […]

CC1=C(/C=C/C(C)=C/C=C/C(C)=C/C(=O)O)C(C)(C)CCC1 [retinoic acid]
effect on levels of EP4 mRNA: reduces
